PubChem BioAssay AID1259254, NCATS – 2017
Screen: 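Gene knock-downs that lead to re-replication, shown by excess G2 DNA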 (primary screen). Cells: human HCT116 colorectal cancer cells. Knock-down reagent: single siRNA against human genes. Timing: 3 days. Detection: 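Imaged Hoechst DNA stain sorts each cell into a cycle phase by DNA amount; per plate, G2 fraction set to 0% for non-targeting and 100% for GMNN siRNA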. Reading the numbers: G2 robust z-score and G2 cells, % of GMNN control: higher = more G2 cells, more excess DNA replication; raw share of cells in G2: higher = larger share of cells with G2 DNA content. Rule for the call: 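Active siRNAs have a G2 robust z of 5 or more median absolute deviations over the median, which in these data means about 38% or higher of GMNN control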.
This is an unselected part of about 59,000 reagents tested. In the full data, about 1,550 (2.6%) got an active call. 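G2 share is only a proxy for re-replication; each gene was hit by three separate siRNAs, and active genes were retested.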 The raw values are shown without normalisation. Reagents against one gene are numbered here. Not given: the amount of reagent.

gene	siRNA no.	G2 robust z-score	G2 cells, % of GMNN control	raw share of cells in G2 (%)	call
PTCH2 (patched 2)	1	1.53	13.8	10.8	inactive
PTCH2 (patched 2)	2	8.37	61.8	26.9	active
PTCH2 (patched 2)	3	-0.982	-3.94	3.88	inactive
ATL3 (atlastin GTPase 3)	1	3.64	28.5	19.1	inactive
ATL3 (atlastin GTPase 3)	2	-1.22	-5.59	2.33	inactive
ATL3 (atlastin GTPase 3)	3	2.01	17.1	9.59	inactive
NREPP1 (NREP pseudogene 1)	1	1.61	14.3	9.18	inactive
NREPP1 (NREP pseudogene 1)	2	0.3	5.08	5.11	inactive
NREPP1 (NREP pseudogene 1)	3	-0.995	-4.03	1.76	inactive
SLC43A2	1	-0.873	-3.17	3.6	inactive
SLC43A2	2	1.03	10.2	10.4	inactive
SLC43A2	3	-0.469	-0.329	4.36	inactive
SLC7A13	1	1.93	16.5	13.8	inactive
SLC7A13	2	4.31	33.3	16.9	inactive
SLC7A13	3	0.103	3.69	6.25	inactive
ZSCAN32 (zinc finger and SCAN domain containing 32)	1	7.15	53.3	21.6	active
ZSCAN32 (zinc finger and SCAN domain containing 32)	2	0.178	4.22	7.81	inactive
ZSCAN32 (zinc finger and SCAN domain containing 32)	3	-0.496	-0.524	3.47	inactive
MAPK8IP2 (mitogen-activated protein kinase 8 interacting protein 2)	1	-1.05	-4.4	2.68	inactive
MAPK8IP2 (mitogen-activated protein kinase 8 interacting protein 2)	2	-0.0727	2.46	4.71	inactive
MAPK8IP2 (mitogen-activated protein kinase 8 interacting protein 2)	3	5.31	40.3	22.6	active
RNF150 (ring finger protein 150)	1	0.529	6.69	6.65	inactive
RNF150 (ring finger protein 150)	2	-0.623	-1.42	5.06	inactive
RNF150 (ring finger protein 150)	3	-0.476	-0.379	4.21	inactive
RP2 (RP2 activator of ARL3 GTPase)	1	-0.429	-0.0526	5.59	inactive
RP2 (RP2 activator of ARL3 GTPase)	2	3.63	28.5	15	inactive
RP2 (RP2 activator of ARL3 GTPase)	3	-0.8	-2.66	3.09	inactive

10 entries already listed, sorted by “G2 cells, % of GMNN control”, descending:
gene	siRNA no.	G2 robust z-score	G2 cells, % of GMNN control	raw share of cells in G2 (%)	call
ZSCAN32 (zinc finger and SCAN domain containing 32)	1	7.15	53.3	21.6	active
SLC7A13	2	4.31	33.3	16.9	inactive
SLC7A13	1	1.93	16.5	13.8	inactive
SLC43A2	2	1.03	10.2	10.4	inactive
ZSCAN32 (zinc finger and SCAN domain containing 32)	2	0.178	4.22	7.81	inactive
SLC7A13	3	0.103	3.69	6.25	inactive
SLC43A2	3	-0.469	-0.329	4.36	inactive
ZSCAN32 (zinc finger and SCAN domain containing 32)	3	-0.496	-0.524	3.47	inactive
SLC43A2	1	-0.873	-3.17	3.6	inactive
NREPP1 (NREP pseudogene 1)	3	-0.995	-4.03	1.76	inactive

Continued.
gene	siRNA no.	G2 robust z-score	G2 cells, % of GMNN control	raw share of cells in G2 (%)	call
RYR1 (ryanodine receptor 1)	1	2.73	22.2	13.4	inactive
RYR1 (ryanodine receptor 1)	2	-0.201	1.55	5.31	inactive
RYR1 (ryanodine receptor 1)	3	0.273	4.88	6.28	inactive
COPS8 (COP9 signalosome subunit 8)	1	5.84	44.1	24.9	active
COPS8 (COP9 signalosome subunit 8)	2	-0.505	-0.589	3.65	inactive
COPS8 (COP9 signalosome subunit 8)	3	0.0689	3.45	7.84	inactive
XKRY (XK related, Y-linked (pseudogene))	1	-0.3	0.856	5.51	inactive
XKRY (XK related, Y-linked (pseudogene))	2	0.178	4.22	5.57	inactive
XKRY (XK related, Y-linked (pseudogene))	3	-0.577	-1.09	2.96	inactive
LOC648999 (retired record)	1	0.87	9.09	7.28	inactive
LOC648999 (retired record)	2	-0.744	-2.27	2.34	inactive
LOC648999 (retired record)	3	0.403	5.8	4.5	inactive
CEP83 (centrosomal protein 83)	1	-0.0272	2.78	4.91	inactive
CEP83 (centrosomal protein 83)	2	2.21	18.5	11.6	inactive
CEP83 (centrosomal protein 83)	3	0.414	5.88	5.11	inactive
SMG8 (SMG8 nonsense mediated mRNA decay factor)	1	-0.536	-0.806	4.21	inactive
SMG8 (SMG8 nonsense mediated mRNA decay factor)	2	-0.251	1.2	4.64	inactive
SMG8 (SMG8 nonsense mediated mRNA decay factor)	3	1.06	10.4	6.47	inactive
MIR9-3HG (MIR9-3 host gene)	1	0.726	8.07	5.77	inactive
MIR9-3HG (MIR9-3 host gene)	2	-0.248	1.22	4.02	inactive
MIR9-3HG (MIR9-3 host gene)	3	-0.538	-0.818	2.85	inactive
RXRG (retinoid X receptor gamma)	1	-0.448	-0.187	5.62	inactive
RXRG (retinoid X receptor gamma)	2	8.65	63.8	26.4	active
RXRG (retinoid X receptor gamma)	3	-0.432	-0.0722	3.93	inactive
EFCAB8 (EF-hand calcium binding domain 8)	1	1.94	16.6	9.48	inactive
EFCAB8 (EF-hand calcium binding domain 8)	2	-0.589	-1.18	2.89	inactive
EFCAB8 (EF-hand calcium binding domain 8)	3	1.52	13.7	10.5	inactive
ACKR5 (atypical chemokine receptor 5)	1	2.21	18.5	12.5	inactive
ACKR5 (atypical chemokine receptor 5)	2	0.607	7.24	7.05	inactive
ACKR5 (atypical chemokine receptor 5)	3	0.108	3.73	4.41	inactive
RCHY1 (ring finger and CHY zinc finger domain containing 1)	1	0.128	3.87	5.47	inactive
RCHY1 (ring finger and CHY zinc finger domain containing 1)	2	1.28	11.9	11.6	inactive
RCHY1 (ring finger and CHY zinc finger domain containing 1)	3	-0.59	-1.19	3.6	inactive
ARID3B (AT-rich interaction domain 3B)	1	-0.7	-1.96	3.21	inactive
ARID3B (AT-rich interaction domain 3B)	2	-1.19	-5.39	3.35	inactive
ARID3B (AT-rich interaction domain 3B)	3	0.0576	3.37	7.81	inactive
NASP (nuclear autoantigenic sperm protein)	1	4.22	32.7	18	inactive
NASP (nuclear autoantigenic sperm protein)	2	-0.431	-0.0632	5.45	inactive
NASP (nuclear autoantigenic sperm protein)	3	-0.858	-3.07	2.18	inactive
TADA3 (transcriptional adaptor 3)	1	-0.581	-1.12	3.15	inactive
TADA3 (transcriptional adaptor 3)	2	-0.755	-2.34	4.94	inactive
TADA3 (transcriptional adaptor 3)	3	-0.0403	2.68	4.46	inactive
